Experimental data published in publication PMC10713658.

Amino acid sequences for entries named in this document (tags omitted).
UniProt Q9NYB9: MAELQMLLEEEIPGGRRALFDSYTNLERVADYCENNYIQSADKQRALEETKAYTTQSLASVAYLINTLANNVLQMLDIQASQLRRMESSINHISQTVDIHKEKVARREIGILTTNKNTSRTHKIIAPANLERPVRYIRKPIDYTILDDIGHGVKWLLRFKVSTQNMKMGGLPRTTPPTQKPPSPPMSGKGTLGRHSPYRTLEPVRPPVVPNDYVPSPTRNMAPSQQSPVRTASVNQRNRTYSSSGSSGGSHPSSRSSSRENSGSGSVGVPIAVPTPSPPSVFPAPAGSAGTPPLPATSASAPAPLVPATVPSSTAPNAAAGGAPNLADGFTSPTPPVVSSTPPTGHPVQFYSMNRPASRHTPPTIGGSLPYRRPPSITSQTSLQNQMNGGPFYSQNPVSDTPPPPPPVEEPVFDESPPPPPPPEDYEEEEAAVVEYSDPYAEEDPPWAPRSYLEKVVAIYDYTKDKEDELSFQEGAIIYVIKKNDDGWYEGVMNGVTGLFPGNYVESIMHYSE

Target: T1, Flag-GRAF1 WT (UniProt Q9UNA1)
T1 sequence: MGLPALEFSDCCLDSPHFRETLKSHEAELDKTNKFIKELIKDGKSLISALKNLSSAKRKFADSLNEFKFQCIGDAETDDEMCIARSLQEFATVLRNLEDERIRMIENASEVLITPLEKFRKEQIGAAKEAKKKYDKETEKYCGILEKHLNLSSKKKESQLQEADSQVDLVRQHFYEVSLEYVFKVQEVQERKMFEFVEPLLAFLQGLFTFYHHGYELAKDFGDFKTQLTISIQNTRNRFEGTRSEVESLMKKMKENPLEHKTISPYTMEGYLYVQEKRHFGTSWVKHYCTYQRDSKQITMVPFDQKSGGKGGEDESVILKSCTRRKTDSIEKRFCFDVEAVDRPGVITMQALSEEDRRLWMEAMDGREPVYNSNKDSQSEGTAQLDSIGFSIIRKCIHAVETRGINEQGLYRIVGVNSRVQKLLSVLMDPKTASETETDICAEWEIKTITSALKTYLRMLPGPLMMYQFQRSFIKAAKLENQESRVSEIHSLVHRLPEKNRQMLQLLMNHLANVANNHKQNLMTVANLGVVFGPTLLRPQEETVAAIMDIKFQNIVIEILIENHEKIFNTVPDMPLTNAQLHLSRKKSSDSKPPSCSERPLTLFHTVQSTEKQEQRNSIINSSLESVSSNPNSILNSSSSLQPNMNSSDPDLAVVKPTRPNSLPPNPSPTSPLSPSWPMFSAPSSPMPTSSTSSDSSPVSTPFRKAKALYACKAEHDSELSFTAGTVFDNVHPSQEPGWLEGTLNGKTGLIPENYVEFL
Assay: affinity purification with mass spectrometry; Flag-GRAF1 IPd by M2 Flag antibody from GRAF1 KO Hela/YFP-Parkin cells treated with OA (2.5 μM oligomycin A, 250 nM antimycin A) for 6 h; on-bead trypsin digestion, LC-MS/MS, label-free quantitation against Flag-empty vector

With “Abelson- interactor adaptor-2 (ABI2) (from UniProt Q9NYB9 1-513)” the binding was “binds”.

No constants are given. Whether binding was seen depends on the method and setting. In cells and extracts the contact can be indirect. Here binding means that the protein was enriched with, or labelled near, the bait; the list need not be complete. Sequences can lack the tags named with a protein.
